PubChem BioAssay AID493246, Drosophila RNAi Screening Center | 2011

- Assay: 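Genome-wide search for dsRNAs that reduce cell number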 (primary screen)
- System: Drosophila Kc and S2R+ cells
- Reagents: long dsRNA against Drosophila genes
- Detection: 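Raw, unnormalised count of remaining cells in each well; per-plate z-scores of cell number underlie the calls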
- Reading the numbers: Kc cell number and S2R+ cell number: higher = more cells remaining
- Active means: 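Counted as a hit if cell number falls by a z-score of at least 3 within its plate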
The deposit covers about 21,000 reagents; below is an unselected part of those that have a named target and a result. Of all reagents, 429 (2%) are marked active. 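Values are raw and not normalised between plates; calls rest on per-plate z-scores that were not deposited.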 A number with no mark means an inactive call. No sequences are given here. Not stated in the record: the amount of reagent, the time to read-out.

gene knocked down | DRSC id | Kc cell number, rep 1 | Kc cell number, rep 2 | S2R+ cell number, rep 1 | S2R+ cell number, rep 2
CG10543 | DRSC04081 | 1.72e6 | 1.83e6 | 1.20e6 | 3.44e5
CG8001 | DRSC08611 | 1.39e6 | 1.45e6 | 1.15e6 | 1.25e6
CG14300 | DRSC14779 | 1.18e6 | 1.29e6 | 1.02e6 | 1.16e6
CG13442 | DRSC06402 | 1.47e6 | 1.40e6 | 1.05e6 | 1.39e6
shps (sheepish) | DRSC14614 | 1.51e6 | 1.47e6 | 9.80e5 | 1.10e6
Lsm11 | DRSC06238 | 1.77e6 | 1.72e6 | 1.36e6 | 1.52e6
mRF1 (mitochondrial translation release factor 1) | DRSC02880 | 1.32e6 | 1.39e6 | 1.20e6 | 1.26e6
Stip1 (Stress induced phosphoprotein 1) | DRSC00756 | 1.37e6 | 1.35e6 | 6.75e5 | 6.76e5
LamC (Lamin C) | DRSC07453 | 1.40e6 | 1.42e6 | 1.07e6 | 1.17e6

Records listed so far whose target name starts with C or c (4):
gene knocked down | DRSC id | Kc cell number, rep 1 | Kc cell number, rep 2 | S2R+ cell number, rep 1 | S2R+ cell number, rep 2
CG10543 | DRSC04081 | 1.72e6 | 1.83e6 | 1.20e6 | 3.44e5
CG8001 | DRSC08611 | 1.39e6 | 1.45e6 | 1.15e6 | 1.25e6
CG14300 | DRSC14779 | 1.18e6 | 1.29e6 | 1.02e6 | 1.16e6
CG13442 | DRSC06402 | 1.47e6 | 1.40e6 | 1.05e6 | 1.39e6

The list goes on:
gene knocked down | DRSC id | Kc cell number, rep 1 | Kc cell number, rep 2 | S2R+ cell number, rep 1 | S2R+ cell number, rep 2
Rbf (Retinoblastoma-family protein) | DRSC18704 | 5.98e5 | – | 9.86e5 | –
Scox (Synthesis of cytochrome c oxidase) | DRSC03117 | 1.35e6 | 1.35e6 | 9.52e5 | 1.08e6
CG9254 | DRSC01969 | 1.65e6 | 1.64e6 | 1.33e6 | 1.48e6
Obp56e (Odorant-binding protein 56e) | DRSC07188 | 1.63e6 | 1.64e6 | 1.30e6 | 1.39e6
l(3)mbt (lethal (3) malignant brain tumor) | DRSC16983 | 4.76e5 | – | 7.93e5 | –
vn (vein) | DRSC11408 | 1.57e6 | 1.44e6 | 1.02e6 | 1.02e6
CG31097 | DRSC14666 | 1.44e6 | 1.62e6 | 1.08e6 | 1.21e6
gcm2 | DRSC03538 | 1.46e6 | 1.49e6 | 1.20e6 | 1.31e6
l(3)73Ah (lethal (3) 73Ah) | DRSC11359 | 1.35e6 | 1.37e6 | 1.23e6 | 1.26e6
CG14034 | DRSC02359 | 1.57e6 | 1.53e6 | 1.20e6 | 1.38e6
Fur1 (Furin 1) | DRSC13707 | 1.57e6 | 1.70e6 | 1.11e6 | 1.14e6
Fur1 (Furin 1) | DRSC16676 | 5.61e5 | – | 8.52e5 | –
aPKC (atypical protein kinase C) | DRSC05515 | 1.47e6 | 1.48e6 | 1.00e6 | 1.11e6
aPKC (atypical protein kinase C) | DRSC07639 | 1.33e6 | 1.35e6 | 1.17e6 | 1.28e6
CG31815 | DRSC01548 | 1.41e6 | 1.47e6 | 8.94e5 | 1.07e6
